Source: PubChem BioAssay AID912 (NCATS, 2007).

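Uptake of anthrax lethal toxin into cultured cells, read by FRET (460/530 nm ratio) and reported from the 460 nm channel; the cell line is not named here.
Each compound was tested as a concentration series from about 0.0005 to 40 µM.
The number is the fitted AC50 of the 460 nm signal alone; lower values mean a more potent effect. A falling signal goes with compounds filed as inhibitors or cytotoxic, a rising one with activators or fluorescent compounds (inferred from the filed classes).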

Values are in µM.
Common to all entries: measured here: 460 nm channel.
This is a side read-out of the assay, for part of the compounds, not drawn at random.
A potency from a partial, single-point or poor curve is only a rough figure.
The first word of each remark tells which way the curve ran; it can be opposite to the aim of the assay.

* Cc1cc(C)c2c(CC(=O)N(CCC#N)Cc3cccnc3)coc2c1 : AC50 12.59 µM (rising, single point)
* COc1ccc(Cc2nc(-c3ccc(-n4cccc4)cc3)no2)cc1OC : AC50 3.162 µM (falling, partial curve)
* Cc1cc(C)c(C)c(OCC(=O)NCC2CCCO2)c1 (stereo unspecified) : AC50 0.631 µM (falling, full curve)
* Cc1sc2ncnc(SCC(=O)c3cccs3)c2c1C : AC50 7.943 µM (falling, partial curve)
* C[C@H](N)Cc1c[nH]c2ccc(OCc3cccs3)cc12 : AC50 12.59 µM (falling, single point)
* CCOC(=O)N1CCC(NC(=O)c2cn(-c3ccc(OC)cc3)c(=O)c3ccccc23)CC1 : AC50 1 µM (rising, single point)
* CN(C)CCN(Cc1cccs1)c1ccccn1 : AC50 12.59 µM (rising, single point)
* Cc1nc(N2CCN(C(=O)c3ccco3)CC2)c2c3c(sc2n1)CCC3 : AC50 31.62 µM (falling, single point)
* COc1cc(S(=O)(=O)N2CCN(Cc3ccccc3)CC2)ccc1Br : AC50 10 µM (falling, partial curve)
* CC1Cc2cc(/C(O)=C3/C(=O)C(=O)N(CCCn4ccnc4)C3c3ccco3)ccc2O1 (stereo unspecified) : AC50 31.62 µM (falling, single point)
* Cc1nc2sc(C(c3cccs3)N3CCOCC3)c(O)n2n1 (stereo unspecified) : AC50 6.31 µM (falling, full curve, poor fit)
* O=C(NCCc1ccccc1)C1CCN(S(=O)(=O)N2CCCC2)CC1 : AC50 1.995 µM (falling, single point)
* Cc1cccc(CNc2ncnc3ccc(-c4ccc5c(c4)OCO5)cc23)c1 : AC50 15.85 µM (falling, single point)
* COc1ccc(C(C)(C)C)cc1NC(=O)C1C2C=CC(C2)C1C(=O)O (stereo unspecified) : AC50 5.012 µM (rising, single point)
* COc1ccc(CCCc2nnc(SCC(=O)Nc3cc(C)c(C)cc3Br)o2)cc1 : AC50 15.85 µM (falling, partial curve)
* CCOC(=O)Nc1cc(OC)c(OC)cc1Cc1nccc2cc(OC)c(OC)cc12 : AC50 2.512 µM (rising, single point)
* CCn1cc(C(=O)OCC(=O)OC2CC(C)CCC2C(C)C)c(=O)c2ccc(C)nc21 (stereo unspecified) : AC50 25.12 µM (falling, single point)
* COC(=O)N1CCC2(CC1)CN(C(c1ccccc1)c1ccccc1)C2 : AC50 5.012 µM (falling, single point)
* Cc1ncoc1C(=O)NCc1ccccc1Cl : AC50 0.1995 µM (rising, full curve, poor fit)
* Cc1ccc(N2C(=O)c3ccc(N)cc3C2=O)cc1 : AC50 1.585 µM (falling, partial curve)
* NS(=O)(=O)c1ccc(N=Cc2c(O)n(C3CCCCC3)c(=O)n(C3CCCCC3)c2=O)cc1 : AC50 12.59 µM (falling, partial curve)
* CN1CCN(c2nc3c(c(=O)[nH]c(=O)n3C)n2CCSc2ncccn2)CC1 : AC50 0.01 µM (falling, full curve, poor fit)

The first 2 entries again:

Cc1cc(C)c2c(CC(=O)N(CCC#N)Cc3cccnc3)coc2c1 read AC50 12.59 µM (rising, single point).
COc1ccc(Cc2nc(-c3ccc(-n4cccc4)cc3)no2)cc1OC read AC50 3.162 µM (falling, partial curve).